Earlier results as cited in patent US20220273587A1 (priority 2019, published 2022).

Conditions: lidocaine alkalized and combined with a heparinoid, pH above 7; Parsons 2015

## CCN(CC)CC(=O)Nc1c(C)cccc1C [lidocaine]
  increase of lidocaine absorption into the bladder wall: approximately twofold
